# Source: publication PMC9652705
# The chains behind the UniProt entries cited, without tags or fusion partners.
# UniProt Q9UJA3: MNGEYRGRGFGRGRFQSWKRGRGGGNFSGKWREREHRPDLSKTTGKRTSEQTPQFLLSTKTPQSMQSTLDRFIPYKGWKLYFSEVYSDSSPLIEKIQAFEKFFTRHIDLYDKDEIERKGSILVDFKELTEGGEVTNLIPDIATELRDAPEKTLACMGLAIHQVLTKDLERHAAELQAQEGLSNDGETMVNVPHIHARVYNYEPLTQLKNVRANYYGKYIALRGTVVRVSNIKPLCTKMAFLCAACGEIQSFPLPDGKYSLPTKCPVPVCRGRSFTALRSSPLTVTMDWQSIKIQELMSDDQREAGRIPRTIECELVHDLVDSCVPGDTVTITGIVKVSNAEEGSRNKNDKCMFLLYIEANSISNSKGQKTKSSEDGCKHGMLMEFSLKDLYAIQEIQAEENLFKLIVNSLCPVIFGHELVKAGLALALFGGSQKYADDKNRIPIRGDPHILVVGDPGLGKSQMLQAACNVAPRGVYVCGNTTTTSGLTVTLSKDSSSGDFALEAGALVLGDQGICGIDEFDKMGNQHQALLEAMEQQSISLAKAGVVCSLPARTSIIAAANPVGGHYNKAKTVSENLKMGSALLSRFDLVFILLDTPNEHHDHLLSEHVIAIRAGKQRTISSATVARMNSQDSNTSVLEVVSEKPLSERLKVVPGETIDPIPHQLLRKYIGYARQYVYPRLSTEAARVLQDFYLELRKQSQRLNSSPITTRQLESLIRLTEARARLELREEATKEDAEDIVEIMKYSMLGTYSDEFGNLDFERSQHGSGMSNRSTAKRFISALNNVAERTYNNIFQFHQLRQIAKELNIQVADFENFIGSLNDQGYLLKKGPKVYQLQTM
# Where two headings read alike, the source gives them in different places. No constants are given. Whether binding was seen depends on the method and setting. Binding seen in cells or lysates may run through a third protein. Some entries that bind do so weakly or less than the wild type.
# T1: TFAM (human (endogenous in HEK293T)) (UniProt Q00059)
# T1 sequence: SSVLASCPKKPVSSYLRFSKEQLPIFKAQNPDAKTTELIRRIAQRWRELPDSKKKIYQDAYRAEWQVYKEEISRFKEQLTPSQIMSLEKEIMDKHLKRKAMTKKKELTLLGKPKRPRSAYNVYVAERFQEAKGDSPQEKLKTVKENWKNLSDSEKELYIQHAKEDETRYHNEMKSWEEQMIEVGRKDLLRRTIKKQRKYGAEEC
# Experiments:
# [1] = biological target: T1, TFAM (human (endogenous in HEK293T)); test: co-IP; anti-TFAM antibody (mouse, ab119684) on 2-4 mg HEK293T cell extract, overnight at 4°C, protein G agarose; IP lysis buffer 50 mM Tris-HCl pH 7.4, 100 mM NaCl, 1 mM EDTA, 5% glycerol, 0.1% SDS, 1% NP-40; mouse IgG control; immunoblot
# [2] = biological target: T1, TFAM (human (endogenous in HEK293T)); test: as above; remark: listed apart in the source
# [3] = biological target: MCM8 (human (endogenous in HEK293T)) (UniProt Q9UJA3); test: co-IP; anti-MCM8 antibody (mouse, H00084515-M02) on 2-4 mg HEK293T cell extract, overnight at 4°C, protein G agarose; IP lysis buffer 50 mM Tris-HCl pH 7.4, 100 mM NaCl, 1 mM EDTA, 5% glycerol, 0.1% SDS, 1% NP-40; mouse IgG control; immunoblot
binding [1],binding [2],binding [3],Molecule
binds,,,MCM8 (from UniProt Q9UJA3 1-840)
,binds,no binding,"mtSSB (protein, UniProt Q04837 17-148) ESETTTSLVLERSLNRVHLLGRVGQDPVLRQVEGKNPVTIFSLATNEMWRSGDSEVYQLGDVSQKTTWHRISVFRPGLRDVAYQYVKKGSRIYLEGKIDYGEYMDKNNVRRQATTIIADNIIFLSDQTKEKE"
,,binds,"TFAM (protein, UniProt Q00059 43-246) SSVLASCPKKPVSSYLRFSKEQLPIFKAQNPDAKTTELIRRIAQRWRELPDSKKKIYQDAYRAEWQVYKEEISRFKEQLTPSQIMSLEKEIMDKHLKRKAMTKKKELTLLGKPKRPRSAYNVYVAERFQEAKGDSPQEKLKTVKENWKNLSDSEKELYIQHAKEDETRYHNEMKSWEEQMIEVGRKDLLRRTIKKQRKYGAEEC"
